# Reference: article PMC5579058
# Results are given in words; binding and its absence hold for the method and conditions named. Binding calls can cover weak binding; strength is not graded here.
# B1: GhTTG1 (protein, UniProt Q9ATD6 1-345)
# chain: MENSTQESHLRSDNSVTYESAYTVYAMALSSTPSSTNINHQRIALGSFLEDYTNRVDIISFDPETLSFKTHPKLAFDHPYPPTKLMFQPNRKSASSSSSCSDLLASTGDFLRLWEVRESSIEPVTVLNNSKTSEFCAPLTSFDWNDVEPKRIGTSSIDTTCTIWDIEKCVVETQLIAHDKEVYDIAWGEARVFASVSADGSVRIFDLRDKEHSTIIYESPQPDTPLLRLAWNKQDLKYMATIQMDSNKVVILDIRSPTTPVAELERHHASVNAIAWAPQSCKHICSAGDDTQALIWELPTVAGPNGIDPLCVYSAGYEINQLQWSRAQPDWIAIAFSNKLQLLKV
# Tests used:
# [1] = molecular target: GhTCP14a (Gossypium hirsutum (upland cotton)); experiment: two-hybrid; GAL4 system, Y2HGold yeast; GhTCP14a or GhTCP22 with fiber-related TFs; growth on TDO medium (lacking Leu, Trp and His) with 1 mM 3-AT; which partner was bait is not stated
# [2] = molecular target: GhTCP22 (Gossypium hirsutum (upland cotton)); experiment: as above
binder,measurement,setting,value
B1,binding,[1],binds
same,binding,[2],binds
